Percent effect of library compounds

By UniProt entry, the sequences of proteins in these tests, tags left out. Residues count along the entry.
UniProt P9WFT3, whole entry: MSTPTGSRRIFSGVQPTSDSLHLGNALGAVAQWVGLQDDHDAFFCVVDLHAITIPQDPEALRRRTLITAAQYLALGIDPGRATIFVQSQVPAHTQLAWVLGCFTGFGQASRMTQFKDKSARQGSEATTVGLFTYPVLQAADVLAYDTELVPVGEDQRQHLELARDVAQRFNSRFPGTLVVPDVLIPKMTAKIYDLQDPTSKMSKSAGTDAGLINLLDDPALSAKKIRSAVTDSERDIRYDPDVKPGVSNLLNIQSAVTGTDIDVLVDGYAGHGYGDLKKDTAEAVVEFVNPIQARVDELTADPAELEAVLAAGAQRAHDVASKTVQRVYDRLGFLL
UniProt P9WPC5, whole entry: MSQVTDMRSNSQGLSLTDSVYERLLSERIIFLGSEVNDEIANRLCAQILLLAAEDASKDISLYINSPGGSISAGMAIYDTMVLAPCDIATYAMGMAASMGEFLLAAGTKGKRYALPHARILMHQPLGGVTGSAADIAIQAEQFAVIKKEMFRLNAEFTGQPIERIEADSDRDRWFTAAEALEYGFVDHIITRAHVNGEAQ
UniProt P9WPC3, whole entry partner: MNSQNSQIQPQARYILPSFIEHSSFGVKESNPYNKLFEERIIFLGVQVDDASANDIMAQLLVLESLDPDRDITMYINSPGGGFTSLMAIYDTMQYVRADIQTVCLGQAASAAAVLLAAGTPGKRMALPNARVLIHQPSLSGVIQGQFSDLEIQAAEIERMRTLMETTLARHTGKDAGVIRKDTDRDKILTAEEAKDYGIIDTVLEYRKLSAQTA
UniProt Q8IDJ8, 1-583: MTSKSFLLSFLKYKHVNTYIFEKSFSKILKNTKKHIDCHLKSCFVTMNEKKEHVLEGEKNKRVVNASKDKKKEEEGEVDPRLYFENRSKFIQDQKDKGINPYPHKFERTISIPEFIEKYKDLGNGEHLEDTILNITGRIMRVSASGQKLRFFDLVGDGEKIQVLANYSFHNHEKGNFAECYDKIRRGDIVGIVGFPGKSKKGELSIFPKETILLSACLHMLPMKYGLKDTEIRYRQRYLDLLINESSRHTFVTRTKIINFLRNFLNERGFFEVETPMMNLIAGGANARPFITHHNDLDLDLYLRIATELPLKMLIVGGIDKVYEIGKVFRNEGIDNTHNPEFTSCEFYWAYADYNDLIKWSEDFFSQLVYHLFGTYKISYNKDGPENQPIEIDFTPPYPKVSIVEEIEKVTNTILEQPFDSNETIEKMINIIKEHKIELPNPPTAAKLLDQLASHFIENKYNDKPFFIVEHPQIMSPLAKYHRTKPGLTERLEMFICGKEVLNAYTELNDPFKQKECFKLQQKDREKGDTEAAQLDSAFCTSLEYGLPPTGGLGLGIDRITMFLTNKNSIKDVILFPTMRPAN
UniProt P9WNZ1, whole entry: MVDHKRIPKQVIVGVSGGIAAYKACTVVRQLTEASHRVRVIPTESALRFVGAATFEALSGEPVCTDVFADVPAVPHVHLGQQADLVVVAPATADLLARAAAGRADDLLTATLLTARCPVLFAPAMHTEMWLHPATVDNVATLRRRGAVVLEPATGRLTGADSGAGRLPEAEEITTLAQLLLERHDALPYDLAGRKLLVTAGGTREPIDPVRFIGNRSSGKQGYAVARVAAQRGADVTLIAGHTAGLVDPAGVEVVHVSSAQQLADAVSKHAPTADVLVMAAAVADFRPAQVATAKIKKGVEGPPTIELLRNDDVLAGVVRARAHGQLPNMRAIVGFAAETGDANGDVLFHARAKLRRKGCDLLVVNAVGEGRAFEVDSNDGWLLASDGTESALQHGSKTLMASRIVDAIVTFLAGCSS

Measurements from “University of Dundee, Small-Polar-MMV Screening Library” (2021), ChEMBL document CHEMBL3988442.

MtTrpRS: 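Enzyme assay of tryptophanyl-tRNA synthetase; the read-out is not stated. Target: Tryptophan-tRNA ligase, Mycobacterium tuberculosis (UniProt P9WFT3). Compounds at 10 µM. Direction is not recorded; retested compounds ran higher, which suggests that high means inhibition. About 65,000 compounds were tested under these conditions; 0.098% (about 64) showed 50% or more at least once.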
ClpP1P2: 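ClpP1P2, Mycobacterium tuberculosis (UniProt P9WPC5 and UniProt P9WPC3). Protease assay of ClpP1P2, read by the AMC dye that it sets free. Tested at 50 µM. Direction is inferred from only a few compounds that gave an IC50; most scored high, so higher reads as stronger inhibition. Most other retested compounds had strongly negative values. About 69,000 compounds were tested under these conditions; 0.015% (about 10) showed 50% or more at least once.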
Leishmania in macrophages: 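Cell assay of Leishmania donovani living inside macrophages; the read-out is not stated. Concentration: 30 µM. Higher reads as stronger inhibition (inferred: compounds with an IC50 in retests scored well above the rest). Of about 69,000 compounds tested this way, about 1,000 (1.5%) reached 50% or more in at least one test.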
PfKRS1: 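Lysine-tRNA ligase, Plasmodium falciparum 3D7 (UniProt Q8IDJ8). Enzyme assay of the cytosolic lysyl-tRNA synthetase in 384-well plates, read by luminescence. Concentration: 30 µM. Higher reads as stronger inhibition, judged from the few compounds that gave an IC50. Of about 69,000 compounds tested this way, about 49 (0.071%) reached 50% or more in at least one test.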
CoaBC: 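Enzyme assay of CoaBC with a phosphate dye (Biomol Green) read at 650 nm. Target: Coenzyme A biosynthesis protein CoaBC, Mycobacterium tuberculosis (UniProt P9WNZ1). Concentration: 30 µM. Direction is inferred from only a few compounds that gave an IC50; most scored high, so higher reads as stronger inhibition. Most strong results did not repeat in a second test. About 67,000 compounds were tested under these conditions; 0.06% (about 40) showed 50% or more at least once.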

Results are given as percent effect.
The record does not define 0% and 100%; most values in the screen are far below 50% and negative numbers occur (in some assays of this library far below -100).
This is an unselected part of the compounds tested.
Two or more numbers in one place are separate tests of the same structure; such repeats can differ widely.
A dash means the value is not listed here; it may have been measured.

Compound | MtTrpRS | ClpP1P2 | Leishmania in macrophages | PfKRS1 | CoaBC
COc1cc(C)c(C(C)NC(=O)Nc2nnc(C)s2)cc1OC (centres unmarked) | -0.3353 | 2.864 | 23.76 | 1.701 | -6.167
CN(Cc1cc2n(n1)CCN(C(=O)c1cccnc1)C2)Cc1nccs1 | -3.289 | -3.164 | 18.51 | 2.375 | 2.222
O=C(O)C(F)(F)F.O=C(O)C(F)(F)F.[H][C@@]12OCCC[C@]1([H])N(C(=O)c1ccc(C)nc1)C[C@@H]2N1CCOCC1 | - | - | 2.104 | - | -
COc1cc2c(cc1OC)CN(C(=O)NCC1CCCO1)CC2 (centres unmarked) | 7.419 | -6.293 | 34.83 | 4.327 | 1.942
[H][C@]12CC[C@]([H])(CN(Cc3cscn3)C1)N(C(=O)Nc1ccc(C)cc1)C2 | - | - | 2.15 | - | -
CCNC(=O)c1cc(OC)c(OC)cc1N(C)S(C)(=O)=O | -0.4341 | -25.55 | 8.521 | 2.783 | 4.099
CC(C)c1nnc2n1CCN(C(=O)c1ccc(OCC3CC3)cc1)C2 | 1.546 | -9.198 | -0.5505 | 12.84 | 2.376
[H][C@]12CN(C(=O)c3scnc3C)CC[C@@]1(O)CCN(C(=O)N1CCCC1)C2 | - | - | -0.08208 | - | -
Cc1nc(C)n(CC2CCCN2Cc2cscn2)n1 (centres unmarked) | 2.58 | 3.86 | 16.35 | -2.293 | 4.359
COc1cc(CNC2CCCc3c2cnn3C)cc(OC)c1.Cl (centres unmarked) | - | - | 19.76 | - | -
Cc1ncsc1CCC(=O)NCc1cc2n(n1)CCN(C(=O)N(C)C)C2 | -3.033 | -7.57 | -7.443 | 6.555 | -4.219
CC(C)c1nnsc1CNC(=O)C1CCN(C(C)C)CC1 | -2.039 | -1.536 | -25.11 | -0.5011 | -9.709
COc1ccc(CCC(=O)NCCC2CCCO2)cc1Br (centres unmarked) | -0.8614 | 3.672 | 22.5 | 5.63 | 0
Cc1noc(C)c1CN(C)CC(=O)N1CCc2sccc2C1 | -6.749 | -27.76 | 16.92 | 0.2812 | 1.364
CC(C(=O)N1CCCN(Cc2cnn(C(C)C)c2)CC1)n1ccnc1 (centres unmarked) | 2.12 | 11.75 | 8.516 | -2.186 | 6.579
Cc1ccc(N2C[C@@H]3OCCN(CC4CC4)[C@@H]3C2)nn1 | - | 1.229 | - | 1.977 | -1.463
CN1CC(=O)N(c2cccnc2)CC12CCN(C(=O)C1CCCCC1)C2 (centres unmarked) | 3.673 | 17.04 | - | -8.377 | 0.1269
COc1ccc(C(=O)N2CCC3(CC2)c2ccccc2[C@@H](N)[C@@H]3O)cc1 | 2.308 | -8.289 | -31.86 | 2.325 | 15.79
CN(C(=O)c1ccc(Cl)c(S(C)(=O)=O)c1)c1ccccc1 | -4.974 | 4.551 | 6.741 | 3.321 | -11.34
CC1=CC(C)(C)N(CN2C(=O)c3ccccc3C2=O)c2ccccc21 | -1.911 | -4.608 | 30.25 | 1.655 | -19.68
Cn1cccc1C(=O)N1CC[C@@H]2[C@@H]1CC(=O)N2CCN1CCOCC1 | 0.9009 | -15.22 | - | -0.7437 | 0.8631
CCn1cc(-c2nccnc2C2CCCN(C(C)=O)C2)cn1 (centres unmarked) | -3.201 | -41.79 | -30.61 | 1.724 | -4.662
CC(C)c1nnc2n1CCN(C(=O)c1ccc(OCC3CC3)nc1)C2 | -0.7333 | 2.636 | 5.957 | -1.211 | -3.74
Cc1ccc2nc(C3CCCN3Cc3csc(C)n3)[nH]c2c1 (centres unmarked) | 3.961 | -12.19 | 32.46 | 10.3 | 4.884
Cc1noc([C@@H]2CC[C@@H]3[C@@H](CCN3c3nnc(C)s3)O2)n1 | - | -11.17 | - | 4.616 | 1.485
Cc1cc(C)c(CNC(=O)NCC(c2ccccc2)N(C)C)c(=O)[nH]1 (centres unmarked) | 0.09747 | 1.427 | 1.604 | -0.2154 | 9.85
CCOc1ncccc1NC(=O)NC1CCCN(S(C)(=O)=O)C1 (centres unmarked) | -0.7382 | -0.8297 | 14.42 | -1.085 | -2.949
CC(C)CNC(=O)c1ccc2nnc(C3CCN(S(C)(=O)=O)C3)n2c1 (centres unmarked) | -2.013 | -10.39 | -24.18 | 0.5224 | 0.6435
COc1c(C(=O)N2CCC(CSc3ccccc3)C2)c(C)nn1C (centres unmarked) | 2.601 | -0.8463 | -60.66 | 3.062 | 6.818
COCCCNC(=O)CN1CCC(c2ccccc2)C1 (centres unmarked) | -2.576 | -22.53 | -10.07 | 1.157 | 0.6329
CN(C)S(=O)(=O)N1CCCC(c2cccc(Cc3ccccc3F)n2)C1 (centres unmarked) | - | -5.252 | 15.93 and -26.36 | 1.805 | 2.67
O=C(C1CCOC1)N1CC2(CCN(c3ccccc3)C2)C1 (centres unmarked) | - | 5.888 | 9.978 | 5.302 | 1.333
[H][C@]12CC[C@@]3(N=C(CC)NC3=O)[C@@]1([H])CN(CC1CC1)C2 | - | - | 11.56 | - | -
COc1ccc(CN(C)Cc2ccnc(C3CCCO3)n2)cc1 (centres unmarked) | -5.805 | -17.95 | -9.405 | 0.4387 | -6.658
Cn1cncc1CN1CCc2nc3sccc3c(=O)n2CC1 | -1.76 | -9.578 | - | 0.8308 | -2.055
CC(C)NC(=O)C1CN(C(=O)c2ccc(F)cc2)CC12CCOCC2 (centres unmarked) | 7.236 | 14.96 | -3.675 | -1.155 | 1.48
Cc1nccnc1CCC1COCCN1C(=O)CCc1c(C)noc1C (centres unmarked) | 4.688 | 16.63 | -0.08093 | -2.208 | 0.2375
CC(C)N1CC(C(=O)NCc2ccc(S(=O)(=O)N(C)C)cc2)CC1=O (centres unmarked) | -1.823 | -10.59 | 24.08 | 2.477 | -2.153
Cc1nc(C(=O)N2CCCC(c3nc(C(C)C)cs3)C2)c[nH]1 (centres unmarked) | -2.649 | -5.005 | -13.99 | -6.156 | 0.3659
CN(C)C(=O)c1cccc(CCNS(=O)(=O)c2ccccc2)c1 | 2.187 | -0.9418 | 17.22 | 6.332 | 4.762
COc1ccccc1Oc1ncccc1CNC(=O)C(C)N1CCCC1 (centres unmarked) | 0.7583 | -14.23 | 11.29 | 2.193 | 5.485
O=C(O)C(F)(F)F.[H][C@@]12CN(Cc3csnn3)C[C@]1([H])OCCN2c1cnccn1 | - | - | 5.403 | - | -
Cc1nn(CCO)c(C)c1CNC1CCCCc2ccccc21 (centres unmarked) | 2.502 | -10.86 | 14.91 | 2.468 | 0.6242
Cc1ccc(C(=O)Nc2ccc(S(=O)(=O)/N=C3\CCCN3C)cc2)s1 | 0.2839 | -7.78 | 13.24 | 1.983 | -6.702
COc1c(CNCCNC(=O)c2ccccc2F)c(C)nn1C | -5.254 | 3.58 | 22.65 | 1.845 | 1.02
CNc1nc(C(=O)N2CCCCC2c2ccc(CN(C)C)cc2)cs1 (centres unmarked) | 0.243 | -4.478 | 1.305 | 7.404 | -15.87
CC(C)CC(=O)N(C)CC(=O)Nc1ccc(Br)cn1 | -7.569 | -31.1 | 5.737 | -0.5567 | -0.5222
CC(C1CC1)N(CC(=O)NCC(F)(F)F)C1CC1 (centres unmarked) | -0.2337 | -6.909 | 23.01 | 4.435 | -12.03
Cn1cccc1C(=O)N1CCC2(CC1)CC(N1CCOCC1)C2 | -5.804 | -3.379 | - | 6.504 | -0.9412
CCCc1ccc(S(=O)(=O)NCCNC(=O)c2ccoc2)cc1 | 3.597 | -4.109 | -6.338 | 8.553 | 3.121
O=C(Nc1nc2c(s1)CNCC2)NC1CCCC1 | -0.1898 | 10.82 | - | -1.297 | 0
CCOCC(=O)N1Cc2[nH]nc(COCC3CC3)c2C1 | -1.618 | 9.033 | - | 9.767 | -
Cc1noc(C)c1CNC(=O)Nc1ccc(N2CCOC2=O)cc1 | -2.88 | -6.847 | -18.58 | 1.009 | 7.767